The results in this text go back to paper PMC4969687.

These are yes or no findings as the source states them, for the method shown. In cells and extracts the contact can be indirect. Binding calls can cover weak binding; strength is not graded here. Where a sequence is shown, tags or fusion partners need not be part of it.

For this test, the target named is T1, Myc-Dishevelled (UniProt P51142).
T1 sequence: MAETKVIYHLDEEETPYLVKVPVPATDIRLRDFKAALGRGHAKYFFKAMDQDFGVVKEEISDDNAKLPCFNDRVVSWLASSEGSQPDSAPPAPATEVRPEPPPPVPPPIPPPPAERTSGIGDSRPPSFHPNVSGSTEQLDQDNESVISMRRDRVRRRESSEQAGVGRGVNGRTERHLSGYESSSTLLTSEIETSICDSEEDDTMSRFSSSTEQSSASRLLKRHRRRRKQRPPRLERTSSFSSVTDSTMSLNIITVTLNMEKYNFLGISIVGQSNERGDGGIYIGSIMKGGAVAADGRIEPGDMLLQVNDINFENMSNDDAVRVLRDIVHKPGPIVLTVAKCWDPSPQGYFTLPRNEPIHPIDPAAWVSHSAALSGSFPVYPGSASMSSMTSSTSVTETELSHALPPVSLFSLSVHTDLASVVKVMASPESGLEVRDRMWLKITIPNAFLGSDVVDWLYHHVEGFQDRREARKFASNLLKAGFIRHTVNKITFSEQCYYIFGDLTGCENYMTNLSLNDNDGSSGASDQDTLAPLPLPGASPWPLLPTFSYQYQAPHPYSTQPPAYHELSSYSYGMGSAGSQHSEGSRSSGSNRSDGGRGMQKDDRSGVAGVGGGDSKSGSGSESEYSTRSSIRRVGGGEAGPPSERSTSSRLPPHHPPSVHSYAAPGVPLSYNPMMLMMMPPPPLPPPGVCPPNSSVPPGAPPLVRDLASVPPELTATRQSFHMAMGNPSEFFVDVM
In words: co-IP; mRNAs for HA-Gtpbp2 and Myc-tagged proteins injected into two-cell Xenopus embryos; lysed at gastrula stage 11; immunoprecipitation with anti-myc antibody; blot for co-precipitated HA-Gtpbp2.

Regarding “HA-Gtpbp2 (GTP-binding protein 2) (Xenopus)”, the binding result is given as “binds”.
